Experimental data as given in PubChem BioAssay AID504648 (National Center for Advancing Translational Sciences (NCATS), 2011).
Several values for one entry are separate records, joined by “and”; a condition that tells them apart may be missing. Equal values may be shown once. Screen size: about 390,000 compounds; about 610 (0.16%) were called active. The shares of active, inactive and inconclusive entries below differ from those in the screen. Calls come from the whole dose curve; as a rule, active = well fitted inhibition curve with a large enough effect; inconclusive = small, poorly fitted or top-dose-only effect, or effect the other way, or another doubt; inactive = no such curve, though single readings can be large or run the other way. Where the call is inconclusive, the potency comes from a doubtful curve fit.

test: Nrf2 qHTS screen for inhibitors: counterscreen for cytotoxicity; settings: A549 ARE-Fluc cells, CellTiter-Fluor viability, 18-24 h; activity change, negative = cytotoxicity: at 46 µM (top of the series)
In short: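 A549 ARE_Fluc cells in 5% FBS OPTI-MEM were exposed to compounds in concentration-response for 18-24 h at 37 deg C. Viability was read by CellTiter-Fluor fluorescence (Ex 405/Em 525) after 30 min, before the luciferase read.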
% is set by controls: 0 for no effect and ±100 for the full control effect; potency is the fitted concentration of half-maximal effect.

| Compound | Potency | activity change, negative = cytotoxicity |
| --- | --- | --- |
| COCCOC(=O)c1c(C)oc2ccc(O)c(CN3CCC(C)CC3)c12 | inconclusive: 20.6 µM [falling, single point] |  |
| Cc1cccc(NC(=O)Cn2cc(C(=O)C3CCCCC3)c3ccccc32)c1 |  | inactive: -6.28% |
| COc1ccc(Cl)cc1NC(=O)c1cc2c(=O)n3ccccc3nc2s1 |  | inactive: -25% |
| O=C(Nc1cccc(C(=O)O)c1)/C(=C/c1cccc([N+](=O)[O-])c1)NC(=O)c1cccc(Br)c1 |  | inactive: -0.113% |
| O=[N+]([O-])c1cc(S(=O)(=O)Nc2ccccc2)ccc1N1CCN(c2ccccc2)CC1 | inconclusive: 18.4 µM [falling, single point] |  |
| CC1(C)CC(=O)C2=C(C1)NC(Nc1nc3ccccc3o1)=NC2c1ccccc1 (centres undefined) |  | inactive: -2.61% |
| COc1ccc2[nH]c(=O)c(C(c3nnnn3CC3CCCO3)N3CCc4ccccc4C3)cc2c1 (centres undefined) |  | inactive: -1.27% |
| CN(c1ccccc1)S(=O)(=O)c1ccc(NC(=O)c2nc(S(C)(=O)=O)ncc2Cl)cc1 | inconclusive: 23.1 µM [falling, single point] and inconclusive: 20.6 µM [falling, single point] |  |
| Cc1nc2nc(C)n(CCN3CCOCC3)c(=O)c2c(-c2cccc([N+](=O)[O-])c2)c1C(=O)CCCCCCCCCCN1CCC(c2ccccc2)(c2ccccc2)CC1 | inconclusive: 20.6 µM [falling, single point] |  |
| N=c1c2ccccc2nc2n1CCCCCCCCCCC2 | inconclusive: 18.4 µM [falling, single point] |  |
| Cc1ccc(Nc2nc(NCc3ccco3)c3ccccc3n2)cc1 | inconclusive: 29.1 µM [falling, single point] |  |
| S=C(NCCCc1cnc[nH]1)NCCCN(Cc1ccccc1)c1ccc(Br)cn1 | inconclusive: 16.4 µM [falling, single point] |  |
| NS(=O)(=O)c1ccc(NNC(=O)c2ccc(Br)o2)c([N+](=O)[O-])c1 | inconclusive: 11.6 µM [falling, partial curve] |  |
| O=C(NCC1CCCO1)c1nn2c(C(F)(F)F)cc(-c3ccc(Br)o3)nc2c1Br (centres undefined) |  | inactive: -2.65% |
| Cc1ccnc(NC(=O)c2ccc(Cl)c(NC(=O)c3ccccc3C)c2)c1 |  | inactive: -2.68% |
| CCCn1c(SCC(=O)N2CCCC2)nc2c1c(=O)n(C)c(=O)n2C |  | inactive: -2.61% |
| c1ccc2c(c1)CCOC2CNCCCN1CCCCC1 (centres undefined) | inconclusive: 14.6 µM [falling, partial curve] |  |
| CCN(c1ccccc1)S(=O)(=O)c1ccc(C(=O)NCC2(N(C)C)CCCCC2)cc1 | inconclusive: 1.03 µM [activator, partial curve, poor fit] |  |
| COc1ccc(CN2CCN(C(C)C(=O)N(C)Cc3cccc(F)c3)CC2)cc1OC (centres undefined) |  | inactive: 8.49% |
| CCN(CC)CCC(c1cc(OC)c(OC)c(OC)c1)c1c(OC)cc(OC)c2c(C)cc(=O)oc12 (centres undefined) | inconclusive: 18.4 µM [falling, partial curve, poor fit] |  |
| Nc1ccccc1S(=O)(=O)C(F)F | inconclusive: 32.6 µM [falling, partial curve, poor fit] |  |
| CCN(C(=O)COC(=O)C1=COCCO1)c1c(N)n(Cc2ccccc2)c(=O)[nH]c1=O |  | inactive: -18.9% |
| CN1CCc2cc(O)c(O)cc2C(c2ccccc2)C1 (centres undefined) |  | inactive: 7.71% |

| Compound | Potency | activity change, negative = cytotoxicity |
| --- | --- | --- |
| O=C(Nc1ccc(-c2cn3ccsc3n2)cc1)c1ccc(F)c(S(=O)(=O)N2CCOCC2)c1 |  | inactive: -28.4% |
| COc1cccc(NC(=O)COC(=O)c2cc(S(=O)(=O)N3CCOCC3)ccc2C)c1 |  | inactive: -4.37% |
| CCc1ccc(-n2cc(-c3ccc([N+](=O)[O-])cc3)[nH]c2=S)cc1 | inconclusive: 32.6 µM [falling, partial curve, poor fit] |  |
| CCCCN1/C(=C/c2ccc3ccccc3[n+]2CC)Sc2ccccc21 | inconclusive: 23.1 µM [falling, partial curve] |  |
| O=C1c2cccc3cccc(c23)C(=O)N1c1ccccc1Cl |  | inactive: -8.61% |
| Cc1ccc(C(C)C)c(Oc2cnccn2)c1 |  | inactive: -10.3% |
| COc1ccc(C2c3c(n(C)c4ccccc34)C(=O)N2CC(=O)Nc2c(C)cc(C)cc2C)cc1 (centres undefined) |  | inactive: -6.52% |
| CCOC(=O)c1nnn(CC(=O)NC(=O)Nc2ccccc2F)c1C(=O)OCC | inconclusive: 32.6 µM [falling, partial curve, poor fit] |  |
| CCNc1ccc(Br)cc(C(=O)/C=C/c2ccc(Cl)cc2Cl)c1=O | inconclusive: 32.6 µM [falling, single point] |  |
| O=c1c2cc([N+](=O)[O-])cc([N+](=O)[O-])c2[nH]n1-c1ccccc1 | active: 16.4 µM |  |
| O=C1C=C(Nc2ccccc2C(=O)O)c2ccccc2C1=O | inconclusive: 18.4 µM [falling, partial curve, poor fit] |  |
| Cc1ccc([C@@H]2CC=C(C(=O)O)[C@H](c3cccc(Cl)c3)N2S(=O)(=O)c2ccccc2C)cc1 | inconclusive: 29.1 µM [falling, partial curve, poor fit] |  |
| Nc1cccc2c1C(=O)N(CC(=O)NC13CC4CC(CC(C4)C1)C3)C2=O | inconclusive: 8.2 µM [activator, partial curve, poor fit] |  |
| CN(c1ccccc1)S(=O)(=O)c1cccc(NC(=O)CCNC(=O)c2ccc([N+](=O)[O-])cc2)c1 |  | inactive: -1.2% |
| CCCCN(CC)CCCNC(=O)Cn1nc(CC)n2c(cc3sccc32)c1=O |  | inactive: 6.67% |
| COCCCn1c(C)nc2c(c1=O)c1nc3ccccc3nc1n2CCc1ccccc1 |  | inactive: -10.9% |
| COc1ccc(Br)cc1S(=O)(=O)N1CCN=C1c1ccccc1 |  | inactive: -2.94% |
| O=S(=O)(c1ccc(Cl)cc1)N1CCCN(c2nc3ccc(Cl)cc3s2)CC1 | inconclusive: 4.11 µM [activator, partial curve, poor fit] |  |
| CCc1ccc(OCC(=O)NC(NC(=S)Nc2ccc(C)cc2C)C(Cl)(Cl)Cl)cc1 (centres undefined) | inconclusive: 18.4 µM [falling, partial curve, poor fit] |  |
| O=C(c1ccc2c(c1)OCO2)N1CCN(CCN2C(=O)c3cccc4cccc(c34)C2=O)CC1 |  | inactive: 3.07% |
| COc1ccc(Cc2nnc(NC(=O)c3ccccc3F)s2)cc1 |  | inactive: -15.4% |
| COc1cccc(-c2cc(=O)c3cc(NC(=O)c4ccc(N(C)C)cc4)ccc3[nH]2)c1 | inconclusive: 18.4 µM [falling, partial curve, poor fit] |  |
| COc1ccc(C(=O)c2cc([N+](=O)[O-])ccc2N2CCN(C)CC2)cc1 | active: 14.6 µM |  |

| Compound | Potency | activity change, negative = cytotoxicity |
| --- | --- | --- |
| CS(=O)(=O)c1ncc(Cl)c(C(=O)N2CCN(c3cccc(Cl)c3)CC2)n1 | active: 18.4 µM |  |
| COC(=O)C1=C(C)N(Cc2ccccc2)C(=NCCc2ccccn2)N[C@H]1c1cccc(F)c1 | inconclusive: 16.4 µM [falling, single point] |  |
| COc1ccc(CC(=O)N2CCN(c3ccccn3)CC2)cc1 |  | inactive: 0% |
| COC(=O)c1c(NC(=O)C2c3ccccc3Oc3ccccc32)sc(C)c1C | inconclusive: 13 µM [activator, partial curve, poor fit] |  |
| CN(C)c1cc2c3ccccc3n(C)c2cc1N |  | inactive: -1.04% |
| O=c1c2ccccc2c(C=Nc2ccc(O)cc2)c(O)n1-c1nccs1 | inconclusive: 11.6 µM [falling, partial curve] |  |
| COc1cc(NC(=O)Nc2cccc(Cl)c2)c(OC)cc1NC(=O)CN1CCCCC1 | inconclusive: 23.1 µM [falling, single point] |  |
| O=C1CN(C(=O)c2c(F)cccc2F)C(c2ccccc2)c2cc(Br)ccc2N1 (centres undefined) | inconclusive: 20.6 µM [falling, partial curve, poor fit] |  |
| CCOc1cc(/C=C/c2ccc3cccc([N+](=O)[O-])c3n2)ccc1O | inconclusive: 25.9 µM [falling, single point] |  |
| CCN(CC)S(=O)(=O)c1cc(NC(=O)Cc2ccc(S(=O)(=O)N3CCOCC3)s2)ccc1Cl | inconclusive: 8.2 µM [falling, partial curve, poor fit] |  |
| C/C(Cn1nnc([N+](=O)[O-])n1)=N\NC(=O)c1ccccc1 |  | inactive: -10.8% |
| C/C(=N\Nc1ccccn1)c1ccc(N2CCOCC2)cc1 |  | inactive: -6.66% |
| Cc1ccc(CSC(Nc2ccc(F)cc2)=C(C#N)C#N)cc1 | inconclusive: 29.1 µM [falling, single point] |  |
| CCc1ccc(CN(Cc2ccco2)C(=O)COc2ccccc2Cl)cc1 |  | inactive: 0.216% |
| COc1cc2ccccc2nn1 | inconclusive: 11.6 µM [activator, partial curve, poor fit] |  |
| O=C(c1cccc(F)c1)N1CCN(C2CCCCC2)CC1 | inconclusive: 29.1 µM [activator, single point] |  |
| CN1c2ccccc2N(C)C1(C)c1cccc2ccccc12 | inconclusive: 23.1 µM [falling, single point] |  |
| CCN1CCN(Cc2ccc(NC(=O)c3ccc(C)c(NC(=O)C(=O)c4c[nH]c5ccccc45)c3)cc2C(F)(F)F)CC1 | inconclusive: 29.1 µM [falling, single point] |  |
| Cc1cc(C)nc(N/N=C/C2=C(O)CC(c3ccc(F)cc3)CC2=O)n1 (centres undefined) | inconclusive: 29.1 µM [falling, partial curve, poor fit] |  |
| COc1ccc(-c2ccoc2)cc1C1C2C=CCC(C)C2C(=O)N1Cc1ccccc1 (centres undefined) |  | inactive: -15.3% |
| CCN1CCN(CCCNC(=O)c2cn(CCOC)c(=O)c3c2c2ccccc2n3C)CC1 |  | inactive: 7.48% |
| CCOC(=O)COc1ccc(/C=C(\C#N)c2nc3ccc(C)cc3[nH]2)cc1OC | inconclusive: 13 µM [falling, partial curve, poor fit] |  |
| Cc1ccccc1Cn1c(=N)n(CC(=O)c2ccco2)c2ccccc21 | inconclusive: 23.1 µM [falling, partial curve, poor fit] |  |

Copied from the list.
Under Potency, CN1c2ccccc2N(C)C1(C)c1cccc2ccccc12 shows inconclusive: 23.1 µM [falling, single point]
Under activity change, negative = cytotoxicity, C/C(=N\Nc1ccccn1)c1ccc(N2CCOCC2)cc1 shows inactive: -6.66%
Under Potency, CCOc1cc(/C=C/c2ccc3cccc([N+](=O)[O-])c3n2)ccc1O shows inconclusive: 25.9 µM [falling, single point]
Under activity change, negative = cytotoxicity, CCN1CCN(CCCNC(=O)c2cn(CCOC)c(=O)c3c2c2ccccc2n3C)CC1 shows inactive: 7.48%
